Data on 2 compounds can be found in patent US20080175800A1, “USE OF SPECIFIC MENTHYL 3-OXOCARBOXYLIC ACID ESTERS AS PHYSIOLOGICALLY ACTIVE COOLING SUBSTANCES” (SYMRISE GmbH & Co. KG, priority 2007, published 2008).

The data set in a line: Sensory evaluation in confectioner's fondant by a panel of experts (cooling action). The format is in vivo. The following applies: 0.05 wt. % in confectioner's fondant. How it is done: The compounds from Examples 1 and 2 were tested for their sensory properties, in particular their cooling action. To this end, they were dissolved, in each case in a specific final concentration, in a mass prepared from sucrose (saccharose) and water (confectioner's fondant, supplier Nordzucker AG, Nordstemmen) and evaluated by a panel of experts. Sensory impressions were rated and the cooling action was assessed on a scale from 1 (no cooling action) to 9 (extremely strong cooling action).

Structures are written as SMILES.

For the compound `CC(=O)CC(=O)O[C@@H]1C[C@H](C)CC[C@H]1C(C)C` [Example 1, (L)-menthyl 3-oxo-butyrate], the bitterness result is reported as “not bitter” and the “sensory impression (flavor note)” value is reported as “slightly flowery”. On to `CCC(=O)CC(=O)O[C@@H]1C[C@H](C)CC[C@H]1C(C)C` [Example 2, (L)-menthyl 3-oxo-pentanoate], for which the bitterness result was “not bitter”.
